Results published in PMC6739404.
These are yes or no findings as the source states them, for the method shown. In cells and extracts the contact can be indirect. Some binding calls cover weakened binding; strength is not graded here. For some assays here: Sequences can lack the tags named with a protein. Values belong to the molecule of their own block, whether it stands above or below them.

By UniProt entry, the sequences of proteins in these tests, tags left out. Residues count along the entry.
UniProt O15455, residues 24-904: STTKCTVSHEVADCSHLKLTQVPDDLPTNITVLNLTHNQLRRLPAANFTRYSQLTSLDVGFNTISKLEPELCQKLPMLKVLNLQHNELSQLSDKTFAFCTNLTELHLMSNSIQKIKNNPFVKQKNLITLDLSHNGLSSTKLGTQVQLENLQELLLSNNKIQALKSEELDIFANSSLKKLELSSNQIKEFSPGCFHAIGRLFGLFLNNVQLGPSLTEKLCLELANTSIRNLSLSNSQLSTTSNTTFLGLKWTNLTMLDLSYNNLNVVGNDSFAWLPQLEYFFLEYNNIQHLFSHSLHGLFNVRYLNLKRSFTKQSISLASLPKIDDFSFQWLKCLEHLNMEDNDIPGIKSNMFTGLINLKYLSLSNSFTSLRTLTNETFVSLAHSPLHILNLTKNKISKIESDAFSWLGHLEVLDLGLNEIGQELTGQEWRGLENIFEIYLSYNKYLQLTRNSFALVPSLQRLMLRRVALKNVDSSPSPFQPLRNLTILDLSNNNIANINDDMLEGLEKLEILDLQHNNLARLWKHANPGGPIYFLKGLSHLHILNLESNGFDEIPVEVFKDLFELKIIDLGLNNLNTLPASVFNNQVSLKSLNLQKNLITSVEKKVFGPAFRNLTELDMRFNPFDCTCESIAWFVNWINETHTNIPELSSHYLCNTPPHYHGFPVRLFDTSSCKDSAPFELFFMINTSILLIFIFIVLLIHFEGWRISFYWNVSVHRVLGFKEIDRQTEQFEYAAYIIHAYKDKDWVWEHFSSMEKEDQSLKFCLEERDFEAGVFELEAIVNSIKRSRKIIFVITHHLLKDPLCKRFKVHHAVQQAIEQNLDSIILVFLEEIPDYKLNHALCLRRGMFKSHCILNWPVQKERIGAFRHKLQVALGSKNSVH
UniProt Q8IUC6: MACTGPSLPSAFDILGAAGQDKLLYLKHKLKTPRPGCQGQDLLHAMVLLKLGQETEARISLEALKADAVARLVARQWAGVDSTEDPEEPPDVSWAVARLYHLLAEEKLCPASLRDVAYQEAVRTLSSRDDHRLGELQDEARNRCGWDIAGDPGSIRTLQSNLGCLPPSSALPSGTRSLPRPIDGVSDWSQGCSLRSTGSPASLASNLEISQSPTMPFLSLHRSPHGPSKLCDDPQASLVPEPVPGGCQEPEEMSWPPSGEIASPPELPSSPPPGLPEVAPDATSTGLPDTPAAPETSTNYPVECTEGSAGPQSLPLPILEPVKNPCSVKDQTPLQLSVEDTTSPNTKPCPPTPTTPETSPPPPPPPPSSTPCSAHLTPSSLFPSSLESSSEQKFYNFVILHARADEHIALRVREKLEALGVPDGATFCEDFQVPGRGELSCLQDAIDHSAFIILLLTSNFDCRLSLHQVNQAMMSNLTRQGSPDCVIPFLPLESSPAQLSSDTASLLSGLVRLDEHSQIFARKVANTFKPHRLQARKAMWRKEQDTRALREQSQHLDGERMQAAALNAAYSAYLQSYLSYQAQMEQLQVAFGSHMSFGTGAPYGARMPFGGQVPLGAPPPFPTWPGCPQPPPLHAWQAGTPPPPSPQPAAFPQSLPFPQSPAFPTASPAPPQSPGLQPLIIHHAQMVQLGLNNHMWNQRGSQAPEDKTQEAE
UniProt O00206, residues 24-839: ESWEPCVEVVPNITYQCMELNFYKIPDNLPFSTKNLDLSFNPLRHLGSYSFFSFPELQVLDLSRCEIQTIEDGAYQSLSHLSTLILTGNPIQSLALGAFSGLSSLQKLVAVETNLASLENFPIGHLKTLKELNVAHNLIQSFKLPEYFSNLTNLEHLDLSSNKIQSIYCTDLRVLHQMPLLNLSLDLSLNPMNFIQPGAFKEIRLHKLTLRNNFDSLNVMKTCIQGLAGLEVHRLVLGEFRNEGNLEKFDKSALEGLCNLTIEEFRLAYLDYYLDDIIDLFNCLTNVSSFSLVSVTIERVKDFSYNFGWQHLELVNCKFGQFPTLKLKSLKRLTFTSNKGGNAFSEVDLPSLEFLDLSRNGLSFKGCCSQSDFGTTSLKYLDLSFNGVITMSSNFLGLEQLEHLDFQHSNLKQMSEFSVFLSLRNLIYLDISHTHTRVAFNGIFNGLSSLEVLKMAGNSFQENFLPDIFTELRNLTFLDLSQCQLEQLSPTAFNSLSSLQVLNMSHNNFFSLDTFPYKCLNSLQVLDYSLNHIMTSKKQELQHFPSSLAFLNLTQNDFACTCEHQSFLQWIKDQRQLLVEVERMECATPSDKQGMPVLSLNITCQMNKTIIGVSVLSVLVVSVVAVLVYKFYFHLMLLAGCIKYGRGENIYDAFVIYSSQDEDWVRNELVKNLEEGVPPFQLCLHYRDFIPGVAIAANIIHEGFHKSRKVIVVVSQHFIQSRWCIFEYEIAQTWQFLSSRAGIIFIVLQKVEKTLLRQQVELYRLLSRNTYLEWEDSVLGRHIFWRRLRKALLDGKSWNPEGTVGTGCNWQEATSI
UniProt Q86XR7: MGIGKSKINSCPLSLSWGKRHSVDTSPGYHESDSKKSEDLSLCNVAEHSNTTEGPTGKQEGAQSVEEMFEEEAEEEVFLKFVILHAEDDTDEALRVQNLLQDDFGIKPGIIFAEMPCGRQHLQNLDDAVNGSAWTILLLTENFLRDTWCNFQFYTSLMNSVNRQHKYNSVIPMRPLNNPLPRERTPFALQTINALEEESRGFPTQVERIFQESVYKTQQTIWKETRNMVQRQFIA

Key:
Flag-TLR3 = Flag-TLR3 (UniProt O15455); assay: co-IP; HEK293 cells transfected with Flag-TLR3, Flag-TBK1 or Flag-TRAF3 and HA-TRIF together with a control or Myc-USP19 (or USP19(C607S)) plasmid, 20 h; IP with anti-Flag or control IgG; blots with anti-HA or anti-Flag
Flag-TBK1 = molecular target: T1, Flag-TBK1 (UniProt Q9UHD2); assay: as above
T1 sequence: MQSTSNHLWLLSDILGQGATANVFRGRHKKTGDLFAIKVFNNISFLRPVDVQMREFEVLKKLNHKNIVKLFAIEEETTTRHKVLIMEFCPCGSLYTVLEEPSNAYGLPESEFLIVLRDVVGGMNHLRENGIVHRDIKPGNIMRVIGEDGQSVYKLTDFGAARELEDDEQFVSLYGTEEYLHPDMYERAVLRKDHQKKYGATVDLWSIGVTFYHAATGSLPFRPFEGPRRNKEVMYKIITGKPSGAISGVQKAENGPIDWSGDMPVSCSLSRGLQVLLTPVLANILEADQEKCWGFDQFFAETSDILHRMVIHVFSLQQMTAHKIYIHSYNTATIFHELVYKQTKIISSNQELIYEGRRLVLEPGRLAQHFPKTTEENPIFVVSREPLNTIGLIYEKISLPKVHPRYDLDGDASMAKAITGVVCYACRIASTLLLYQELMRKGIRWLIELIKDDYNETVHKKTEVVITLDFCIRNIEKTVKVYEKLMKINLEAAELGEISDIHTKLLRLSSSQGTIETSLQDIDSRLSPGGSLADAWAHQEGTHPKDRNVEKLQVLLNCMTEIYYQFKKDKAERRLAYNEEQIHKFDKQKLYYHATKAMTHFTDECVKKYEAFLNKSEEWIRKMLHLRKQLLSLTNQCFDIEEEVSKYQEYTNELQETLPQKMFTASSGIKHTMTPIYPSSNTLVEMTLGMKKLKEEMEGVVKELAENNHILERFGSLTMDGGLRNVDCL

[1] = molecular target: Endogenous TRIF (human (endogenous in 293-TLR3 and 293-TLR4 cells)) (UniProt Q8IUC6); assay: co-IP; endogenous: 293-TLR3 or 293-TLR4 cells (control or USP19-deficient) untreated or treated with poly(I:C) (100 μg/ml) or LPS (100 ng/ml) for the indicated times; lysates immunoprecipitated with anti-TRIF or control IgG; immunoblots
[2] = molecular target: TLR4, overexpressed (tag not stated for this experiment) (UniProt O00206); assay: co-IP; HEK293 cells transfected with the indicated plasmids (TRIF, TLR4, TRAM, with or without USP19 or USP19(C607S)), 20 h; co-IP and immunoblots with the indicated antibodies
[3] = molecular target: Endogenous TRIF (human (endogenous in 293-TLR3 and 293-TLR4 cells)) (UniProt Q8IUC6); assay: co-IP; control or USP19-deficient 293-TLR4 cells untreated or treated with LPS (100 ng/ml) for the indicated times; co-IP and immunoblots with the indicated antibodies (precipitating antibody not told)
[4] = molecular target: TRAM (TRIF-related adapter molecule), overexpressed (tag not stated for this experiment) (UniProt Q86XR7); assay: co-IP; HEK293 cells transfected with the indicated plasmids (TRIF, TLR4, TRAM, with or without USP19 or USP19(C607S)), 20 h; co-IP and immunoblots with the indicated antibodies
[5] = molecular target: Endogenous TRIF (human (endogenous in 293-TLR3 and 293-TLR4 cells)) (UniProt Q8IUC6); assay: co-IP; endogenous: 293-TLR3 or 293-TLR4 cells (control or USP19-deficient) untreated or treated with poly(I:C) (100 μg/ml) or LPS (100 ng/ml) for the indicated times; lysates immunoprecipitated with anti-TRIF or control IgG; immunoblots; remark: listed apart in the source

- binding (Flag-TLR3): binds
- binding (Flag-TBK1): binds
Molecule: HA-TRIF (from UniProt Q8IUC6 1-712)

- binding [1]: binds
Molecule: TLR3 of 293-TLR3 cells (from UniProt O15455 24-904) (receptor)

- binding [2]: binds
Molecule: TRAM (TRIF-related adapter molecule), overexpressed (tag not stated for this experiment) (from UniProt Q86XR7 1-235)

- binding [3]: binds
Molecule: TRAM of 293-TLR4 cells (from UniProt Q86XR7 1-235)

- binding [4]: binds
Molecule: TRIF, overexpressed (tag not stated for this experiment) (from UniProt Q8IUC6 1-712)

- binding [5]: binds
B1: Endogenous KCTD10 (protein, UniProt Q9H3F6 1-313)
chain: MEEMSGESVVSSAVPAAATRTTSFKGTSPSSKYVKLNVGGALYYTTMQTLTKQDTMLKAMFSGRMEVLTDSEGWILIDRCGKHFGTILNYLRDGAVPLPESRREIEELLAEAKYYLVQGLVEECQAALQNKDTYEPFCKVPVITSSKEEQKLIATSNKPAVKLLYNRSNNKYSYTSNSDDNMLKNIELFDKLSLRFNGRVLFIKDVIGDEICCWSFYGQGRKIAEVCCTSIVYATEKKQTKVEFPEARIYEETLNILLYEAQDGRGPDNALLEATGGAAGRSHHLDEDEERERIERVRRIHIKRPDDRAHLHQ

- binding [5]: binds
B2: Endogenous USP19 (enzyme, UniProt O94966 1-1318)
chain: MSGGASATGPRRGPPGLEDTTSKKKQKDRANQESKDGDPRKETGSRYVAQAGLEPLASGDPSASASHAAGITGSRHRTRLFFPSSSGSASTPQEEQTKEGACEDPHDLLATPTPELLLDWRQSAEEVIVKLRVGVGPLQLEDVDAAFTDTDCVVRFAGGQQWGGVFYAEIKSSCAKVQTRKGSLLHLTLPKKVPMLTWPSLLVEADEQLCIPPLNSQTCLLGSEENLAPLAGEKAVPPGNDPVSPAMVRSRNPGKDDCAKEEMAVAADAATLVDEPESMVNLAFVKNDSYEKGPDSVVVHVYVKEICRDTSRVLFREQDFTLIFQTRDGNFLRLHPGCGPHTTFRWQVKLRNLIEPEQCTFCFTASRIDICLRKRQSQRWGGLEAPAARVGGAKVAVPTGPTPLDSTPPGGAPHPLTGQEEARAVEKDKSKARSEDTGLDSVATRTPMEHVTPKPETHLASPKPTCMVPPMPHSPVSGDSVEEEEEEEKKVCLPGFTGLVNLGNTCFMNSVIQSLSNTRELRDFFHDRSFEAEINYNNPLGTGGRLAIGFAVLLRALWKGTHHAFQPSKLKAIVASKASQFTGYAQHDAQEFMAFLLDGLHEDLNRIQNKPYTETVDSDGRPDEVVAEEAWQRHKMRNDSFIVDLFQGQYKSKLVCPVCAKVSITFDPFLYLPVPLPQKQKVLPVFYFAREPHSKPIKFLVSVSKENSTASEVLDSLSQSVHVKPENLRLAEVIKNRFHRVFLPSHSLDTVSPSDTLLCFELLSSELAKERVVVLEVQQRPQVPSVPISKCAACQRKQQSEDEKLKRCTRCYRVGYCNQLCQKTHWPDHKGLCRPENIGYPFLVSVPASRLTYARLAQLLEGYARYSVSVFQPPFQPGRMALESQSPGCTTLLSTGSLEAGDSERDPIQPPELQLVTPMAEGDTGLPRVWAAPDRGPVPSTSGISSEMLASGPIEVGSLPAGERVSRPEAAVPGYQHPSEAMNAHTPQFFIYKIDSSNREQRLEDKGDTPLELGDDCSLALVWRNNERLQEFVLVASKELECAEDPGSAGEAARAGHFTLDQCLNLFTRPEVLAPEEAWYCPQCKQHREASKQLLLWRLPNVLIVQLKRFSFRSFIWRDKINDLVEFPVRNLDLSKFCIGQKEEQLPSYDLYAVINHYGGMIGGHYTACARLPNDRSSQRSDVGWRLFDDSTVTTVDESQVVTRYAYVLFYRRRNSPVERPPRAGHSEHHPDLGPAAEAAASQASRIWQELEAEEEPVPEGSGPLGPWGPQDWVGPLPRGPTTPDEGCLRYFVLGTVAALVALVLNVFYPLVSQSRWR
